Assay results taken from publication PMC6949220.

Biological target: HA-STAT3 deletion construct with the transactivation domain (TAD)
Experiment: co-IP; tagged proteins co-transfected (HEK293T where stated); lysates precipitated with anti-HA, anti-Flag or anti-Myc, immunoblot

B1: Flag-DDIAS (DNA damage-induced apoptosis suppressor) (protein, UniProt Q8IXT1 1-998)
chain: MNRRRKFLLASVLALQNSSFIYPSCQKCFSRIILVSKRSNCPKCGSTGESGNANYRYKLSLKVAESNKLFVITVFGSCLDTFFGLTATGLHRYIQDPNKIPETLDNDTTQNLLTKAVETCFVGQSFIFGVTNFENQPGQGSDASNFLQQCSDHKRKAKALVACQIVLPDPGIAGFTVIDYFHQLLQTFNFRKLQCDSQAPNNHLLALDHSNSDLSSIYTSDSTSDFFKSCSKDTFSKFWQPSLEFTCIVSQLTDNDDFSASEQSKAFGTLQQNRKSISIAEATGSSSCHDPIQDSWSLVSYMDKKSTAEKLGKELGLQAKELSAVHSSHHEIGVNDSNLFSLEMREPLESSNTKSFHSAVEIKNRSQHELPCFQHHGIDTPTSLQKRSACCPPSLLRLEETASSSQDGDPQIWDDLPFSESLNKFLAVLESEIAVTQADVSSRKHHVDNDIDKFHADHSRLSVTPQRTTGALHTPPIALRSSQVIVKANCSKDDFLFNCKGNLSPSVEKESQPDNKVEAVSVNHNGRDMSEYFLPNPYLSALSSSSKDLETIVTLKKTIRISPHRESDHSSLNNKYLNGCGEISVSEMNEKLTTLCYRKYNDVSDLCKLENKQYCRWSKNQDDSFTICRKLTYPLETLCNSPNRSTNTLKEMPWGHINNNVTQSYSIGYEGSYDASADLFDDIAKEMDIATEITKKSQDILLKWGTSLAESHPSESDFSLRSLSEDFIQPSQKLSLQSLSDSRHSRTCSPTPHFQSDSEYNFENSQDFVPCSQSTPISGFHQTRIHGINRAFKKPVFYSDLDGNYEKIRIFPENDKQQASPSCPKNIKTPSQKIRSPIVSGVSQPDVFNHYPFAECHETDSDEWVPPTTQKIFPSDMLGFQGIGLGKCLAAYHFPDQQELPRKKLKHIRQGTNKGLIKKKLKNMLAAVVTKKKTHKYNCKSSGWISKCPDIQVLAAPQLHPILGPDSCSEVKCCLPFSEKGPPSVCETRSAWSPELFS
- binding: binds

No constants are given. Whether binding was seen depends on the method and setting. Binding seen in cells or lysates may run through a third protein. Binding calls can cover weak binding; strength is not graded here. Where a sequence is shown, tags or fusion partners need not be part of it.
